Laboratory results from paper PMC4041447.

Chains of the proteins cited; added tags and fusions are not shown.
UniProt Q01167: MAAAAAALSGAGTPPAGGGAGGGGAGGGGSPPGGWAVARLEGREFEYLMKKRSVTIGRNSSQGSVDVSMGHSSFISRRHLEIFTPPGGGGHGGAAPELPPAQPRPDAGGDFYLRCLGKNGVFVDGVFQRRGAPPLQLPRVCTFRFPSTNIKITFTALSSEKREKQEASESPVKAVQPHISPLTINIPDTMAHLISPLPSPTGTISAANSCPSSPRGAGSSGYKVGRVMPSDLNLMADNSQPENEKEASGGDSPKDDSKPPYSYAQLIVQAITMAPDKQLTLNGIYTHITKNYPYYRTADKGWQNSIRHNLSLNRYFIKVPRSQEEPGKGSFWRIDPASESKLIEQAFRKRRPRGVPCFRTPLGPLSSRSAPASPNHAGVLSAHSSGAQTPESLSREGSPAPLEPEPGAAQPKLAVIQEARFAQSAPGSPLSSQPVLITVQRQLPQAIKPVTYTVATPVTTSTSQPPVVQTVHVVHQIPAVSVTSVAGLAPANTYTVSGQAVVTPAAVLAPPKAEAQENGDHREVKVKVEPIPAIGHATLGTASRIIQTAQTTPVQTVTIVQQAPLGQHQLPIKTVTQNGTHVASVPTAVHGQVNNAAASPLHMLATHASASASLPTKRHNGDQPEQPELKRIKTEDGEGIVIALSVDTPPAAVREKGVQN
UniProt Q09028: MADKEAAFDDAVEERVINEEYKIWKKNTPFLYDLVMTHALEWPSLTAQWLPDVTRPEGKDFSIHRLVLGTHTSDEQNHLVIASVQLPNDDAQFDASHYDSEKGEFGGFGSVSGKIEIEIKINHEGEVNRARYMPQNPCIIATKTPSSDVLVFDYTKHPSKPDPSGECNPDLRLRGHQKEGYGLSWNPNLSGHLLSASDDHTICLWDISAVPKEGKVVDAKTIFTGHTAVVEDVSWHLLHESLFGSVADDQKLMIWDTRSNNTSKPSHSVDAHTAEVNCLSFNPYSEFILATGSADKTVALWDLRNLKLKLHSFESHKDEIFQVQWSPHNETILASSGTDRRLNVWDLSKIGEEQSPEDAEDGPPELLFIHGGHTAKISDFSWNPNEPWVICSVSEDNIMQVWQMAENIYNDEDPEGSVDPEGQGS
UniProt Q13547: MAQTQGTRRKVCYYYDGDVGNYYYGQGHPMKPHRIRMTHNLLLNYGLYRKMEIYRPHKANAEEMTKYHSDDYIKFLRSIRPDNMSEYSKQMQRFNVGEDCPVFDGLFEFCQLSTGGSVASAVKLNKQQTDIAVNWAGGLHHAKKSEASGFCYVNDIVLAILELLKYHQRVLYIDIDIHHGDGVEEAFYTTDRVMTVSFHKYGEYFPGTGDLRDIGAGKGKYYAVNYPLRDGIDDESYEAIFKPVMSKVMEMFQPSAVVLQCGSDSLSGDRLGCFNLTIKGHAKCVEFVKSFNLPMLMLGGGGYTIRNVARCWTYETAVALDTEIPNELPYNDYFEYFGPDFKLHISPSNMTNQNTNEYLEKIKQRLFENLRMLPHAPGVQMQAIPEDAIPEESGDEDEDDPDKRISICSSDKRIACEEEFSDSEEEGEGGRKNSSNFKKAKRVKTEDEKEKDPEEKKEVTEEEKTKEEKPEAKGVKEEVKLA

Molecular target: Flag-tagged FOXK2 (FOXK2–HF) (UniProt Q01167)
Test: affinity purification with mass spectrometry; RIME: formaldehyde cross-linked U2OS–FOXK2–HF cells, anti-Flag M2 immunoprecipitation of FOXK2, mass spectrometry; control IPs from U2OS–HF cells

binding | Substance
binds | RBBP4 (from UniProt Q09028 1-425)
binds | endogenous HDAC1 (from UniProt Q13547 1-482) (enzyme)

No constants are given. Whether binding was seen depends on the method and setting. In cells and extracts the contact can be indirect. Here binding means that the protein was enriched with, or labelled near, the bait; the list need not be complete.
